Measured values from PubChem BioAssay AID1671190 (National Center for Advancing Translational Sciences (NCATS), 2021).
Out of some 580,000 compounds screened, about 6,100 (1.1%) were called active. Inconclusive results, whose numbers are uncertain, are shown with a selection of clear calls. Calls follow the shape of the dose curve; as a rule, active = well fitted inhibition curve with a large enough effect; inconclusive = small, poorly fitted or top-dose-only effect, or another doubt; inactive = no such curve, though single readings can be large or run the other way. A potency beside an inconclusive call is a rough fit, not a confirmed value.

The chains behind the UniProt entries cited, without tags or fusion partners. Where a name states a change or a piece, a line headed by the entry shows the natural chain unless it says otherwise.
UniProt P18054: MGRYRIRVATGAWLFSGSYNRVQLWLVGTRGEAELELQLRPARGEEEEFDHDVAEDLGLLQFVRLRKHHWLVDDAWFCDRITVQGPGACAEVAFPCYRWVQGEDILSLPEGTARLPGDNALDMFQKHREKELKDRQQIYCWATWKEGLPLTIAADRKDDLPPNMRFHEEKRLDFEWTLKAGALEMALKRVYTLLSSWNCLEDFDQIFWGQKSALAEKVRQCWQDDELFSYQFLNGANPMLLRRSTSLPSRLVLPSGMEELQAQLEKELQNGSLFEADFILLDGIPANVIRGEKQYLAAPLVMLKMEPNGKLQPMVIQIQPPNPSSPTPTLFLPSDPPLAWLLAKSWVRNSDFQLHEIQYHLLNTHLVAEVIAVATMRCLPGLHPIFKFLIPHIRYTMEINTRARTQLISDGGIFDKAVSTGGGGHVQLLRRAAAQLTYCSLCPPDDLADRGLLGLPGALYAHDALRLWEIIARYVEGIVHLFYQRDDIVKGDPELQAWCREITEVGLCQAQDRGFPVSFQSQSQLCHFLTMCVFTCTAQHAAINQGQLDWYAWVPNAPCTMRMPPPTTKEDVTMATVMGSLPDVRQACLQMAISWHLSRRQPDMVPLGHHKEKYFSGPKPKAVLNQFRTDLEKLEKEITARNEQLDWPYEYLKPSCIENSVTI

Target: Polyunsaturated fatty acid lipoxygenase ALOX12 (Homo sapiens) (UniProt P18054)
Experiment: Primary qHTS assay for inhibitors of human arachidonate 12S-lipoxygenase (ALOX12): Round 2
Conditions: purified 12hLO, xylenol orange hydroperoxide absorbance; activity change, negative = inhibition: at 108 µM (top of the series) unless noted
Outline: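 Hydroperoxide product was detected by ferrous iron/xylenol orange as the 573 to 405 nm absorbance ratio. Arachidonic acid at 40 uM (final) was turned over for 30 min at room temperature by 150 nM human 12hLO, pH 7.0 Hepes buffer, after 15 min compound preincubation.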
% is scaled to controls: 0 for no effect and ±100 for the full control effect; potency is read from the fitted curve at half-maximal effect.

SMILES	Potency	activity change, negative = inhibition
O=C1CSC(c2cn(-c3ccccc3)nc2-c2cc3ccccc3oc2=O)N1Cc1ccco1 (stereo not given)	inactive	
CNC(=O)NC(=O)C(c1ccccc1)N(C)Cc1ccccc1 (stereo not given)	inconclusive: 63.1 µM [inhibitor, partial curve, poor fit]	
Cn1nc(C(=O)N2CCCCCC2)c2c1-c1ccsc1CC2	inconclusive: 44.7 µM [inhibitor, partial curve, poor fit]	
Cc1c(C(=O)NN)[nH]c2ccc([N+](=O)[O-])cc12	inactive	
C/C(=N\NC(=O)c1ccccc1-n1cccc1)c1ccccn1	inactive	
CCCCn1c(=O)n(CC(=O)NCc2ccc(Cl)cc2)c(=O)c2c1ncn2CC(C)C	inactive	
Cc1cccc(C(=O)N/C(=C/c2ccco2)C(=O)N2CCCCCC2)c1	inconclusive: 79.4 µM [inhibitor, partial curve, poor fit]	
O=C(CCS(=O)(=O)c1ccc(Cl)cc1)Oc1ccc2c(c1)OCO2	inconclusive: 56.2 µM [inhibitor, partial curve, poor fit]	
NS(=O)(=O)c1ccc2c(c1)C1C=CCC1C(C1CC=CCC1)N2 (stereo not given)	inconclusive: 2 µM [inhibitor, full curve, poor fit]	
O=C(Nc1cccc(S(=O)(=O)Nc2ccc(Cl)cc2)c1)c1ccc(Cl)nc1	inconclusive: 35.5 µM [inhibitor, partial curve, poor fit]	
O=C(NCc1ccncc1)[C@@H]1CCCN1C(=O)[C@@H]1CCCN1C(=O)c1ccccc1Cl	inconclusive: 112 µM [inhibitor, single point]	
Cc1ccc(-c2nc(CN3CCCC3c3ccsc3)co2)c(C)c1 (stereo not given)	inconclusive: 44.7 µM [inhibitor, partial curve, poor fit]	
COCCn1c(SCc2cccnc2)nnc1-c1ccco1	inactive	
COc1ccc(Cn2c(CO)cnc2SCC(=O)Nc2cccc(NC(C)=O)c2)cc1	inactive	
COc1ccc(Cl)cc1N(CC(=O)NC1CC2CCC1C2)S(=O)(=O)c1ccccc1 (stereo not given)	inactive	
COc1ccc2cc(C(=O)N3CCCC(NC(=O)C(C)C)C3)c(C)nc2c1 (stereo not given)	inactive	
CCOC(=O)c1cnc2c(Cl)cccc2c1Nc1cccc(C)c1	inconclusive: 100 µM [inhibitor, single point]	
CO[C@H]1[C@@H]2C=CO[C@@H](O[C@H]3O[C@@H](CO)[C@H](O)[C@@H](O)[C@@H]3O)[C@@H]2[C@@]2(CO)O[C@@H]12	inconclusive: 100 µM [inhibitor, single point]	
CN(Cc1ccccc1)C(=O)c1cn(C)c2ccc(S(=O)(=O)N(C)C3CCCCC3)cc2c1=O	inconclusive: 50.1 µM [inhibitor, single point]	
C(=C\c1ccccc1)/CN(C/C=C/c1ccccc1)CC1CCCO1 (stereo not given)	inconclusive: 0.501 µM [inhibitor, full curve]	
Cn1c(-c2ccccc2)cnc1NCc1ccccc1	inconclusive: 0.282 µM [inhibitor, full curve, poor fit]	
Fc1ccccc1-c1nnc([C@H]2CCN(Cc3cccc(Cl)c3)C2)o1	inactive	

SMILES	Potency	activity change, negative = inhibition
CCOC(=O)Cn1nnnc1C(C(C)C)N(Cc1cc2c(C)cc(C)cc2[nH]c1=O)C1CCCC1 (stereo not given)	inconclusive: 4.47 µM [inhibitor, full curve, poor fit]	
CC(C)c1ccc(N(CC(=O)N2CCOCC2)S(C)(=O)=O)cc1	inconclusive: 4.47 µM [inhibitor, full curve, poor fit]	
Oc1ccccc1-n1c(-c2ccccc2)ccc1-c1ccccc1	inconclusive: 31.6 µM [inhibitor, single point]	
CN1[C@@H](CCC(=O)N2CCN(c3ccccn3)CC2)CNC(=O)[C@@H]2[C@H]1CCN2Cc1cccs1	inactive	
Cc1ccc(NC2=C(Cl)C(=O)OC2OC(=O)c2ccco2)c(C)c1 (stereo not given)	inconclusive: 112 µM [inhibitor, single point]	
CNc1ncccc1C(=O)N1CCC(O)(c2ccc(C)cn2)CC1	inconclusive: 8.91 µM [inhibitor, full curve, poor fit]	
CC1=Nc2cc(C(=O)NCCCN(C)C)ccc2Sc2ccc(Cl)cc21	inactive	
CCOc1ccc(NC(=O)CCS(=O)(=O)c2ccc(Br)cc2)cc1	inconclusive: 44.7 µM [inhibitor, partial curve, poor fit]	
Cn1c(COc2ccccc2)nnc1SCC(=O)Nc1nnc(C2CC2)s1	inconclusive: 89.1 µM [inhibitor, single point]	
COc1ccc(/C=C(/C#N)c2nc(-c3ccc(Br)cc3)cs2)cc1	inactive	
C#CCOCCOCCOCCNc1nc(N2CCN(C(=O)C([C@@H](C)CC)n3cc(C(N)COC(=O)C(F)(F)F)nn3)CC2)nc(N2CCN(C(=O)[C@H](CCC(=O)O)n3cc(C(N)CC(C)C)nn3)CC2)n1 (stereo not given in full)	inactive	
CCOC(=O)c1c(N)sc(=S)c2c1CCC2	inconclusive: 4.47 µM [inhibitor, full curve, poor fit]	
COc1ccc(-c2cc(NC=O)c3ncc(-c4cccc(C(F)(F)F)c4)n3c2)c(OC)c1	inconclusive: 50.1 µM [inhibitor, partial curve, poor fit]	
CCc1cc(CC)n(-c2nc3c(c(=O)n(CC)c(=O)n3C)n2Cc2ccc(OC)cc2)n1	inactive	
Cc1cc(NS(=O)(=O)c2ccc(NC(=O)Nc3ccccc3)cc2)no1	inactive	
C=CCN1CCc2c(cc(O)c(O)c2Br)[C@@H](c2ccccc2)C1	inconclusive: 44.7 µM [inhibitor, partial curve]	
CCOC(=O)c1csc(NC(=O)CSc2nnnn2CC)n1	inconclusive: 1.41 µM [inhibitor, full curve, poor fit]	
Cc1cc(=O)n(CCc2ccccc2)c(O)c1C#N	inconclusive: 44.7 µM [inhibitor, partial curve, poor fit]	
Cc1cc(C)n2nc(C(=O)OCC(=O)NCc3ccc(Cl)cc3)nc2n1	inconclusive: 112 µM [inhibitor, single point]	
COc1ccc(-c2[nH]nc3c2C(c2ccc(N(C)C)cc2)C2=C(CC(C)(C)CC2=O)N3)cc1 (stereo not given)	inconclusive: 79.4 µM [inhibitor, partial curve, poor fit]	
O=C(Nc1nc(-c2ccccn2)cs1)C1CC(=O)N(c2ccccc2Cl)C1 (stereo not given)	inconclusive: 31.6 µM [inhibitor, partial curve, poor fit]	
CCCn1c(C(C)NC(=O)c2ccccc2)n[nH]c1=S (stereo not given)	inactive	

Grouped by structure, the entries above containing a Cl atom
SMILES	Potency	activity change, negative = inhibition
CCCCn1c(=O)n(CC(=O)NCc2ccc(Cl)cc2)c(=O)c2c1ncn2CC(C)C	inactive	
O=C(CCS(=O)(=O)c1ccc(Cl)cc1)Oc1ccc2c(c1)OCO2	inconclusive: 56.2 µM [inhibitor, partial curve, poor fit]	
O=C(Nc1cccc(S(=O)(=O)Nc2ccc(Cl)cc2)c1)c1ccc(Cl)nc1	inconclusive: 35.5 µM [inhibitor, partial curve, poor fit]	
O=C(NCc1ccncc1)[C@@H]1CCCN1C(=O)[C@@H]1CCCN1C(=O)c1ccccc1Cl	inconclusive: 112 µM [inhibitor, single point]	
COc1ccc(Cl)cc1N(CC(=O)NC1CC2CCC1C2)S(=O)(=O)c1ccccc1 (stereo not given)	inactive	
CCOC(=O)c1cnc2c(Cl)cccc2c1Nc1cccc(C)c1	inconclusive: 100 µM [inhibitor, single point]	
Fc1ccccc1-c1nnc([C@H]2CCN(Cc3cccc(Cl)c3)C2)o1	inactive	
Cc1ccc(NC2=C(Cl)C(=O)OC2OC(=O)c2ccco2)c(C)c1 (stereo not given)	inconclusive: 112 µM [inhibitor, single point]	
CC1=Nc2cc(C(=O)NCCCN(C)C)ccc2Sc2ccc(Cl)cc21	inactive	
Cc1cc(C)n2nc(C(=O)OCC(=O)NCc3ccc(Cl)cc3)nc2n1	inconclusive: 112 µM [inhibitor, single point]	
O=C(Nc1nc(-c2ccccn2)cs1)C1CC(=O)N(c2ccccc2Cl)C1 (stereo not given)	inconclusive: 31.6 µM [inhibitor, partial curve, poor fit]	

Two compounds picked at random from those above:
SMILES	Potency	activity change, negative = inhibition
COc1ccc(-c2cc(NC=O)c3ncc(-c4cccc(C(F)(F)F)c4)n3c2)c(OC)c1	inconclusive: 50.1 µM [inhibitor, partial curve, poor fit]	
COc1ccc(-c2[nH]nc3c2C(c2ccc(N(C)C)cc2)C2=C(CC(C)(C)CC2=O)N3)cc1 (stereo not given)	inconclusive: 79.4 µM [inhibitor, partial curve, poor fit]	

Remaining list, next part:

SMILES	Potency	activity change, negative = inhibition
Cc1cc(=O)n(CC(=O)N2CCCCC2C)c(-c2ccccc2)n1 (stereo not given)	inactive	
Fc1cccc(Cl)c1CSc1nnc2c(Cl)cc(C(F)(F)F)cn12	inactive	
CN1/C(=N\O)c2cccc3cccc1c23	inconclusive: 31.6 µM [inhibitor, single point]	
NC(=O)C1CCN(C(=O)[C@H]2C[C@@H](O)[C@H](O)[C@@H]3N=C(Nc4cccc(C(F)(F)F)c4)S[C@@H]32)CC1	inconclusive: 89.1 µM [inhibitor, single point]	
CN(C)CCNc1ccccc1	inconclusive: 0.447 µM [inhibitor, full curve, poor fit]	
COc1cccc(CN2C[C@]34C=C[C@@H](C[C@@H]3S2(=O)=O)O4)c1	inactive	
CCOc1ccc(-c2n[nH]c(=S)n2Cc2ccccc2)cc1	inconclusive: 44.7 µM [inhibitor, partial curve, poor fit]	
CCCN(CCC)C(=O)c1ccc2nc(-c3ccc(OC)c(OC)c3)c(-c3ccc(OC)c(OC)c3)nc2c1		inconclusive: -30.8% [inhibitor]
CC(=O)N1CCc2cc(CNS(=O)(=O)c3ccc(Cl)s3)ccc21	inconclusive: 56.2 µM [inhibitor, partial curve, poor fit]	
CCCCOc1ccc(-c2c(C(=O)Nc3ccccc3)c(C)[nH]c(=S)c2C#N)cc1	inconclusive: 44.7 µM [inhibitor, partial curve, poor fit]	
COc1ccc(Cl)cc1NC(=O)NCC1CCN(Cc2ccccc2F)CC1	inconclusive: 112 µM [inhibitor, single point]	
N#Cc1ccccc1-n1ccnc1	inconclusive: 5.01 µM [inhibitor, full curve, poor fit]	
Nc1nc2c(s1)C(c1c(Cl)cccc1Cl)CC(=O)N2 (stereo not given)	active: 14.1 µM	
O=C(NNC(=O)c1ccc2ccccc2n1)c1ccc(O)cc1	inactive	
CCCCCCNC(=O)O[C@H]1Cn2c(=O)n(CCCCCC)c(=O)n2[C@@H]2CN(S(=O)(=O)c3ccc(C)cc3)C[C@]12O	inconclusive: 44.7 µM [inhibitor, partial curve, poor fit]	
COc1ccc(-c2ccc3nnc(CNC(=O)Cc4cccc(OC)c4)n3n2)cc1	inactive	
CCOc1ccc(CN2C(=O)c3ccccc3C2=O)cc1C(=O)NC1CC(C)(C)NC(C)(C)C1	inconclusive: 56.2 µM [inhibitor, partial curve, poor fit]	
CC1CCN(C(=O)CN2C(=O)c3ccccc3S2(=O)=O)CC1	inactive	
COc1cc(C)cc2oc(=O)c(CC(=O)NCCc3cccc(F)c3)c(C)c12	inconclusive: 100 µM [inhibitor, single point]	
Cc1ccc(-c2ccc(CN3C(C(C)C)C(=O)N(Cc4cn(CC5CCCCC5)nn4)CCS3(=O)=O)cc2)cc1 (stereo not given)	inconclusive: 89.1 µM [inhibitor, single point]	
Cc1nc2ccccc2nc(=O)c1NNc1ccc([N+](=O)[O-])cc1	inconclusive: 79.4 µM [inhibitor, partial curve, poor fit]	
